Results taken from the supplement of paper PMC10849652.
The other results are listed elsewhere or left out.

Chains of the proteins cited; added tags and fusions are not shown. Lines headed by an entry give the natural chain unless they say otherwise; changes in a name come on top.
UniProt Q6NYC8: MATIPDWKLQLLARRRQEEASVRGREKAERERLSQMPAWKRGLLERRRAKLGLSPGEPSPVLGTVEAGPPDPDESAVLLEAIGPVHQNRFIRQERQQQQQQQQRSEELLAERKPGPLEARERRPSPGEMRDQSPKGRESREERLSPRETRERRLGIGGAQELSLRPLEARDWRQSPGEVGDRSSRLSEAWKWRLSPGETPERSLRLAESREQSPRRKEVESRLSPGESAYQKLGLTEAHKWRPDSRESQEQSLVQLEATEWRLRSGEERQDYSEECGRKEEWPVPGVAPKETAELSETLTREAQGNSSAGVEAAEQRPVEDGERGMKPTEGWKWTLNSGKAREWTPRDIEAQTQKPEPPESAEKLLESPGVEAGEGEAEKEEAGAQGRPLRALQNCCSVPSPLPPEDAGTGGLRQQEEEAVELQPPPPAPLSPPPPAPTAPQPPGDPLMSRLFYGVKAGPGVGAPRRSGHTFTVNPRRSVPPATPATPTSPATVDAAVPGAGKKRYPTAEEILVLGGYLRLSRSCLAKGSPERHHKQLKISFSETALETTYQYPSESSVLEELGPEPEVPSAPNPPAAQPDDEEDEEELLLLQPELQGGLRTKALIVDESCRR
UniProt Q4J6C6, whole entry, looked up: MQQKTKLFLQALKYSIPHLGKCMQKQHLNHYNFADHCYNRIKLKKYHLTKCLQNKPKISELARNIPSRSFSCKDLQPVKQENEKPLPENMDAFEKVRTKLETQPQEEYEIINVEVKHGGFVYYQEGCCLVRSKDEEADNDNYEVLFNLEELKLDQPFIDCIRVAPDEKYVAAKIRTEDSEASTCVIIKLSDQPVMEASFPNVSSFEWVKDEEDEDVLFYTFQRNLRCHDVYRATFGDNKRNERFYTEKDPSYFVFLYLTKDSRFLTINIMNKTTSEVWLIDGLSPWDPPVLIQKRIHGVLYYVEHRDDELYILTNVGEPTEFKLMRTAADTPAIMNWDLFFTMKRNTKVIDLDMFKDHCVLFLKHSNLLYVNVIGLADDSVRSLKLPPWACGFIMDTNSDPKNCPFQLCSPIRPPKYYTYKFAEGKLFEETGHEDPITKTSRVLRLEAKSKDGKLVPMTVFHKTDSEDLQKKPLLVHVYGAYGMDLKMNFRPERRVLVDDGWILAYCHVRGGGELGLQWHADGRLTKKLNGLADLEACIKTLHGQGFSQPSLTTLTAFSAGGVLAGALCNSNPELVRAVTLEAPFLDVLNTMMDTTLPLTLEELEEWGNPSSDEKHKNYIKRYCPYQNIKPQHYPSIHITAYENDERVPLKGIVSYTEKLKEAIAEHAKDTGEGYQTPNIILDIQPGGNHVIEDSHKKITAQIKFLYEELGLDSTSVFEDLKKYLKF
UniProt P49642: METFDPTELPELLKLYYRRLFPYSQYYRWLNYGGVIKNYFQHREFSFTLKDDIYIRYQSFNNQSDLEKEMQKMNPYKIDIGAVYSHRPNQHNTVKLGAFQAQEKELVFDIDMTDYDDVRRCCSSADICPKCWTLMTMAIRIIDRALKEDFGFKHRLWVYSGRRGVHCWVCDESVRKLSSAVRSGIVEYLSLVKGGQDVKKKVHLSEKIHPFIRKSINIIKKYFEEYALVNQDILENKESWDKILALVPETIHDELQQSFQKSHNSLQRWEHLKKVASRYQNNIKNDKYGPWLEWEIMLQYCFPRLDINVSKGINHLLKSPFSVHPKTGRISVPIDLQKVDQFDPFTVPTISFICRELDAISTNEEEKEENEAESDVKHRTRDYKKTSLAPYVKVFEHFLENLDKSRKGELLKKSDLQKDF
UniProt Q5VTL8: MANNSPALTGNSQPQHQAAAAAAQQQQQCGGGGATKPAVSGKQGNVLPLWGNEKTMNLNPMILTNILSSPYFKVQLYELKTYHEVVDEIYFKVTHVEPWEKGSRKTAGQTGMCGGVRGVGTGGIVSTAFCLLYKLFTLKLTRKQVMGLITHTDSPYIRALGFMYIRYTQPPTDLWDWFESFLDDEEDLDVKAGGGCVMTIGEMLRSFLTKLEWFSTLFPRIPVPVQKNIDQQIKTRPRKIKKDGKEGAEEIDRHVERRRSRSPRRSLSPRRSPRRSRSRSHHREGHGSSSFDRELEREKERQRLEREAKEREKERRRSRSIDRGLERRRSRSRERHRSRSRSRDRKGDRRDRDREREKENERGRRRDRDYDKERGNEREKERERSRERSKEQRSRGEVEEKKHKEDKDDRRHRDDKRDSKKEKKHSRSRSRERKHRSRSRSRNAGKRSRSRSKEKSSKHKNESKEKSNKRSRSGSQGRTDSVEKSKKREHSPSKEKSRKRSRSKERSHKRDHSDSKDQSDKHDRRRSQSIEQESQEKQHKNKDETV
UniProt Q96C90: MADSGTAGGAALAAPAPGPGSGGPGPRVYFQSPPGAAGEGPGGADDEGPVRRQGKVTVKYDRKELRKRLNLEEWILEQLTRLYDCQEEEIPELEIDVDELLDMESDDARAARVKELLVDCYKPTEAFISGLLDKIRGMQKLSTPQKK
UniProt P53041: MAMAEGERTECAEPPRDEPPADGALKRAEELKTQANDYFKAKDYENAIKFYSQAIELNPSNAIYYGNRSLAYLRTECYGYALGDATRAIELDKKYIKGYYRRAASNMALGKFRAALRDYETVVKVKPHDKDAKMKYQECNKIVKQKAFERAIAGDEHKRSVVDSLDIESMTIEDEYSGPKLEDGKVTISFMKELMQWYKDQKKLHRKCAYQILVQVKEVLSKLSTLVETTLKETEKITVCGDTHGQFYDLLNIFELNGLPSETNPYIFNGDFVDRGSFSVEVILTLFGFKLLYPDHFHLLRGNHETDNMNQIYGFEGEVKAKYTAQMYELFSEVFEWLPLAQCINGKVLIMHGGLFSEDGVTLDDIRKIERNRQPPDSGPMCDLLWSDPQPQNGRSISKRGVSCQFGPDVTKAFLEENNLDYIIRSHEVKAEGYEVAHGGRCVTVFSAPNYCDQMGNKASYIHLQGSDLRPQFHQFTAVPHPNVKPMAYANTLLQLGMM
UniProt P50336: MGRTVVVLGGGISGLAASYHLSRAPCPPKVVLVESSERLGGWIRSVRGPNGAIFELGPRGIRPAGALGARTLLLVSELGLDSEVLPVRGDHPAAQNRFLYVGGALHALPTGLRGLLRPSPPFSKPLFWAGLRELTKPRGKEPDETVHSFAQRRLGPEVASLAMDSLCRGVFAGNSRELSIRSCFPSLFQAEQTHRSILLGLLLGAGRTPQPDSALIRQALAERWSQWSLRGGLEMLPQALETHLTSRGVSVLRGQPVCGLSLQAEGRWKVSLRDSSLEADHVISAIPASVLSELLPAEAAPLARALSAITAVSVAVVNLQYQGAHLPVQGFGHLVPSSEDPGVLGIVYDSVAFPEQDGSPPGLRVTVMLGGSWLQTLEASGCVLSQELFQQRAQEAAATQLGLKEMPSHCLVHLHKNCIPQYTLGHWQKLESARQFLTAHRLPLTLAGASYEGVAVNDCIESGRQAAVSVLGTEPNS
UniProt Q8TF05: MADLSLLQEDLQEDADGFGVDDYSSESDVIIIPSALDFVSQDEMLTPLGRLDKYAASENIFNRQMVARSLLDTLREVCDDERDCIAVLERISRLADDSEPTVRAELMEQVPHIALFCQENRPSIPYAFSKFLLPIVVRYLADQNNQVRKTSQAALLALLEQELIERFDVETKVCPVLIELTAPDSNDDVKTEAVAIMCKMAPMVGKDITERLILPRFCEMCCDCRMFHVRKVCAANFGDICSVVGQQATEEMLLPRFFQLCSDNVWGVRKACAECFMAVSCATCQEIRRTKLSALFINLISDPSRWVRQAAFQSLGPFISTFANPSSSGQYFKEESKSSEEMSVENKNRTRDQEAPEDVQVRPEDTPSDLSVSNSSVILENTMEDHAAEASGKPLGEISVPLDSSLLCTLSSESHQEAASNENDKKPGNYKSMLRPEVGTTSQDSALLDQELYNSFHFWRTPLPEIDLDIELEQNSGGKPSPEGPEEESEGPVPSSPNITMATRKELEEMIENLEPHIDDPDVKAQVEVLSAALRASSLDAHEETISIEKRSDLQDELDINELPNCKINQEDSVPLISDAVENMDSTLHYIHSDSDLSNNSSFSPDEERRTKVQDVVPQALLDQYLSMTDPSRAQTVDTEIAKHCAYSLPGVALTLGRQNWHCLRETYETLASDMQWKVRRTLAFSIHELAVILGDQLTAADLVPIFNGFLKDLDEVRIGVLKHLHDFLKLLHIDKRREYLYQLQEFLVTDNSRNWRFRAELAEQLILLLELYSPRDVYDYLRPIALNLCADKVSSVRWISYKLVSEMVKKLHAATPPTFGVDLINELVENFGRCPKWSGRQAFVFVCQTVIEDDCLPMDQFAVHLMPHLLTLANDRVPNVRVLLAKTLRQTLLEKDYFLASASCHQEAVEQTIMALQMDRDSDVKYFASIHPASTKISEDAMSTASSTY
UniProt P50897: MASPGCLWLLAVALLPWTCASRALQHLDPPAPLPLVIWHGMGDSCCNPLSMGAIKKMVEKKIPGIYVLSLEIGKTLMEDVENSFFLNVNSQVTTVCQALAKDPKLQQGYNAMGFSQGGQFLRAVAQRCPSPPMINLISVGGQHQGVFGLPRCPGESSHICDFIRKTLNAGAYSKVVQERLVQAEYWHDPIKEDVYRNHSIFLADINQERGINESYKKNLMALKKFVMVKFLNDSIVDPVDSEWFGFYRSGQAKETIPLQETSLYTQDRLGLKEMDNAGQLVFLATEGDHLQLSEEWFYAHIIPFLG
UniProt Q05655: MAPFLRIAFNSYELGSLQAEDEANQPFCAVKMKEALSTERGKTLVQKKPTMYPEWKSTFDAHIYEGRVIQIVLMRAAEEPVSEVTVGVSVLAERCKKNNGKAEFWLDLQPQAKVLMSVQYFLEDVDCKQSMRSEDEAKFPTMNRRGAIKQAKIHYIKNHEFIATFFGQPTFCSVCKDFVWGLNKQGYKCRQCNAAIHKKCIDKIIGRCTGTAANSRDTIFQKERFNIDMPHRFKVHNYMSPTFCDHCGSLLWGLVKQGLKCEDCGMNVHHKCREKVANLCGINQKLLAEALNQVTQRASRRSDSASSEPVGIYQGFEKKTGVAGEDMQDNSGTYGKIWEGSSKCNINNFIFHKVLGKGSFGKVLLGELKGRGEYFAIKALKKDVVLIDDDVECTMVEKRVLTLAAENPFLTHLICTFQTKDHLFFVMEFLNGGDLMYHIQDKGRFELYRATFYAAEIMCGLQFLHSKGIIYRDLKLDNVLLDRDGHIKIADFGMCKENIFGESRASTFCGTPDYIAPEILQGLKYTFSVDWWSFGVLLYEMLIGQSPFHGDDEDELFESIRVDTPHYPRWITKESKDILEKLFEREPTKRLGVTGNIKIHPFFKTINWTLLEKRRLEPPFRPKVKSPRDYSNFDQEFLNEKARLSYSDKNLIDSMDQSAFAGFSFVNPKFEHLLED
UniProt K7ELL7: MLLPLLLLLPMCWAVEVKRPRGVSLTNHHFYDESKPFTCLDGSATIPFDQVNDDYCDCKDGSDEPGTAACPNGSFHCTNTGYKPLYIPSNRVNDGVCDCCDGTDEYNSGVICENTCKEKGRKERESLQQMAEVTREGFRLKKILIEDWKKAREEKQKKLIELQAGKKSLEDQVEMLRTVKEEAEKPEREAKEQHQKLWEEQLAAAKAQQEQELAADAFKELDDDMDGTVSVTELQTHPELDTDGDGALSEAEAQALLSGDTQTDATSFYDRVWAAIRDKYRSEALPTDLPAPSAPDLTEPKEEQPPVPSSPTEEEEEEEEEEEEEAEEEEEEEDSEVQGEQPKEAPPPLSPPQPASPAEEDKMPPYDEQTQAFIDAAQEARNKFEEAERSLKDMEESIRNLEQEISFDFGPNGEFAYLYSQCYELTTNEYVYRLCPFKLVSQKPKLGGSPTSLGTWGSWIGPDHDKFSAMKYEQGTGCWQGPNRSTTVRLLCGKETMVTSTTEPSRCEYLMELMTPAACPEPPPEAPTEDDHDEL

Experiments:
Experiment in all cases: log2 fold change, soluble protein after heating vs DMSO (PISA); higher = thermal stabilisation; K562 lysate, 10 uM; active = over 0.2 and 3.5 SD of the protein, either way, in both replicates (recomputed)
vemurafenib = compound: CCCS(=O)(=O)Nc1ccc(F)c(C(=O)c2c[nH]c3ncc(-c4ccc(Cl)cc4)cc23)c1F [vemurafenib]
How it was run: (§1)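 Values give the log-two fold change in thermal stability against solvent controls, from duplicates. Crude K562 extract at 1 mg/mL protein, made by dounce homogenisation in PBS pH 7.4 with 1 mM MgCl2, was treated with 10 μM compound for 30 min. After 3 min heating across 48°C-58°C, aliquots were pooled, adjusted to 0.5% NP-40 at 4°C and centrifuged at 21,000xg for 90 min. The supernatant was measured by TMTpro 16plex LC-MS/MS with channel sums equalised.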

[1] = compound: CCCS(=O)(=O)Nc1ccc(F)c(C(=O)c2c[nH]c3ncc(Cl)cc23)c1F
How it was run: as §1

barasertib = compound: CCN(CCCOc1ccc2c(Nc3cc(CC(=O)Nc4cccc(F)c4)[nH]n3)ncnc2c1)CCOP(=O)(O)O [barasertib]
How it was run: as §1

[2] = compound: CC[C@@H]1C(=O)N(C)c2cnc(Nc3ccc(C(=O)NC4CCN(C)CC4)cc3OC)nc2N1C1CCCC1
How it was run: as §1

volasertib = compound: CC[C@@H]1C(=O)N(C)c2cnc(Nc3ccc(C(=O)N[C@H]4CC[C@H](N5CCN(CC6CC6)CC5)CC4)cc3OC)nc2N1C(C)C [volasertib]
How it was run: as §1

[3] = compound: CCn1c(C(=O)N(C2CC2)C2CC2)cc2c3c(ncn3C)c(Nc3cc(C)n(C)n3)nc21
How it was run: as §1

[4] = compound: CCn1cc(-c2ccnc3[nH]c(-c4cccc(CN(C)C)c4)cc23)c(-c2ccc(NC(=O)N(C)C)cc2)n1
How it was run: as §1

[5] = compound: CN1CCC(CNc2ccc3ncc(-c4cccc(OC(F)(F)F)c4)n3n2)CC1
How it was run: as §1

saracatinib = compound: CN1CCN(CCOc2cc(OC3CCOCC3)c3c(Nc4c(Cl)ccc5c4OCO5)ncnc3c2)CC1 [saracatinib]
How it was run: as §1

sotrastaurin = compound: CN1CCN(c2nc(C3=C(c4c[nH]c5ccccc45)C(=O)NC3=O)c3ccccc3n2)CC1 [sotrastaurin]
How it was run: as §1

Target | log2 fold change (vemurafenib) | log2 fold change [1] | log2 fold change (barasertib) | log2 fold change [2] | log2 fold change (volasertib) | log2 fold change [3] | log2 fold change [4] | log2 fold change [5] | log2 fold change (saracatinib) | log2 fold change (sotrastaurin)
PPP1R18 (UniProt Q6NYC8) | inactive: 0.021 | inactive: 0.004 | inactive: 0.051 | inactive: 0.008 | inactive: 0.001 | inactive: 0 | inactive: 0.051 | inactive: -0.026 | inactive: 0.029 | inactive: -0.024
PRKAG1 (UniProt P54619) | inactive: -0.014 | inactive: 0.014 | inactive: -0.002 | inactive: -0.026 | inactive: -0.06 | inactive: 0.009 | inactive: 0.043 | inactive: 0.076 | inactive: -0.022 | inactive: 0.106
PRKCA (UniProt P17252) | inactive: 0.019 | inactive: -0.016 | inactive: 0.051 | inactive: -0.186 | inactive: -0.054 | inactive: 0.004 | inactive: 0.101 | inactive: -0.207 | inactive: -0.046 | active: 0.924
PPP1R10 (UniProt Q96QC0) | inactive: 0.027 | inactive: 0.007 | inactive: 0.043 | inactive: 0.111 | inactive: 0.007 | inactive: 0.006 | inactive: 0.017 | inactive: 0.004 | inactive: 0.032 | inactive: -0.007
PPP2R5E (UniProt Q16537) | inactive: 0.009 | inactive: -0.011 | inactive: -0.016 | inactive: 0.013 | inactive: -0.003 | inactive: 0.001 | inactive: -0.01 | inactive: -0.074 | inactive: 0.017 | inactive: 0.029
PRDX4 (UniProt Q13162) | inactive: 0.017 | inactive: -0.001 | inactive: 0.005 | inactive: 0.018 | inactive: 0.015 | inactive: -0.018 | inactive: -0.108 | inactive: 0.083 | inactive: 0.025 | inactive: 0.031
PPP1R8 (UniProt Q12972) | inactive: 0.049 | inactive: -0.011 | inactive: -0.032 | inactive: 0.08 | inactive: -0.007 | inactive: -0.031 | active: -0.28 | inactive: 0.176 | inactive: -0.038 | inactive: 0.015
PREPL (UniProt Q4J6C6) | inactive: -0.032 | inactive: 0.023 | inactive: -0.01 | inactive: -0.019 | inactive: -0.009 | inactive: 0.007 | inactive: 0.001 | inactive: -0.013 | inactive: -0.006 | inactive: 0.032
PPP1R12A (UniProt O14974) | inactive: -0.007 | inactive: 0.012 | inactive: 0.032 | inactive: 0.014 | inactive: -0.01 | inactive: -0.003 | inactive: -0.022 | inactive: -0.007 | inactive: 0.001 | inactive: 0.006
PRIM1 (UniProt P49642) | inactive: -0.036 | inactive: 0.022 | inactive: 0.031 | inactive: -0.089 | inactive: -0.069 | inactive: 0.062 | inactive: -0.008 | inactive: -0.029 | inactive: -0.002 | inactive: 0.007
PRPF38B (UniProt Q5VTL8) | inactive: -0.021 | inactive: 0.014 | inactive: 0.018 | inactive: -0.011 | inactive: -0.013 | inactive: -0.006 | inactive: -0.078 | inactive: 0.02 | inactive: -0.002 | inactive: -0.025
PPP1R14B (UniProt Q96C90) | inactive: 0.071 | inactive: -0.02 | inactive: 0.032 | inactive: 0.055 | inactive: 0.017 | inactive: -0.088 | inactive: 0.05 | inactive: 0.017 | inactive: 0.048 | inactive: -0.046
PPIP5K1 (UniProt Q6PFW1) | inactive: -0.02 | inactive: 0.023 | inactive: 0.031 | inactive: -0.014 | inactive: -0.043 | inactive: -0.002 | inactive: -0.005 | inactive: -0.006 | inactive: -0.016 | inactive: 0.023
PPP5C (UniProt P53041) | inactive: 0.017 | inactive: 0.003 | inactive: -0.03 | inactive: 0.034 | inactive: 0.019 | inactive: -0.014 | inactive: -0.084 | inactive: 0.063 | inactive: -0.004 | inactive: -0.002
PRKCSH isoform 2 (UniProt P14314) | inactive: 0.007 | inactive: -0.053 | inactive: -0.159 | inactive: 0.03 | inactive: -0.052 | inactive: -0.101 | active: -1.03 | inactive: 0.326 | inactive: 0.022 | inactive: 0.199
PPP3CB (UniProt P16298) | inactive: 0.007 | inactive: -0.005 | inactive: -0.021 | inactive: 0.021 | inactive: 0.005 | inactive: 0.052 | inactive: -0.06 | inactive: 0.079 | inactive: 0.006 | inactive: 0.013
PPOX (UniProt P50336) | inactive: 0.058 | inactive: 0.02 | inactive: -0.093 | inactive: -0.036 | inactive: -0.007 | inactive: -0.096 | inactive: -0.075 | inactive: -0.018 | inactive: -0.044 | inactive: -0.021
PRMT6 (UniProt Q96LA8) | inactive: -0.051 | inactive: 0.017 | inactive: 0.008 | inactive: -0.065 | inactive: 0.007 | inactive: 0.054 | inactive: 0.075 | inactive: -0.055 | inactive: -0.005 | inactive: 0.045
PPIL2 (UniProt Q13356) | inactive: 0.012 | inactive: 0.015 | inactive: 0.035 | inactive: -0.013 | inactive: -0.06 | inactive: 0 | inactive: -0.023 | inactive: 0.016 | inactive: -0.032 | inactive: 0.024
PPM1H (UniProt Q9ULR3) | inactive: 0.066 | inactive: -0.001 | inactive: 0 | inactive: 0.103 | inactive: 0.025 | inactive: 0 | inactive: -0.079 | inactive: 0.041 | inactive: -0.062 | inactive: 0.022
PPP3CA isoform 2 (UniProt Q08209) | inactive: -0.008 | inactive: -0.037 | inactive: 0.025 | inactive: 0.046 | inactive: -0.005 | inactive: 0.032 | inactive: 0.115 | inactive: -0.182 | inactive: 0 | inactive: -0.005
PPP4R1 (UniProt Q8TF05) | inactive: -0.019 | inactive: 0.021 | inactive: -0.011 | inactive: -0.017 | inactive: -0.05 | inactive: 0.008 | inactive: -0.013 | inactive: 0.005 | inactive: 0.009 | inactive: 0.016
PRPF18 (UniProt Q99633) | inactive: -0.002 | inactive: -0.009 | inactive: 0.032 | inactive: 0.016 | inactive: -0.026 | inactive: 0.031 | inactive: -0.015 | inactive: -0.024 | inactive: 0.052 | inactive: -0.018
PRKAR1A (UniProt P10644) | inactive: 0.007 | inactive: 0.027 | inactive: 0.034 | inactive: -0.011 | inactive: -0.017 | inactive: 0.049 | inactive: 0.073 | inactive: -0.084 | inactive: -0.01 | inactive: -0.025
PPT1 (UniProt P50897) | inactive: -0.001 | inactive: 0.015 | inactive: 0.02 | inactive: -0.084 | inactive: -0.06 | inactive: 0.011 | inactive: 0.055 | inactive: -0.06 | inactive: 0.009 | inactive: 0.025
PRKAA1 isoform 2 (UniProt Q13131) | inactive: -0.088 | inactive: -0.002 | inactive: -0.042 | inactive: -0.07 | inactive: -0.076 | inactive: 0.028 | inactive: 0.021 | inactive: 0.108 | inactive: -0.023 | inactive: 0.07
PRKCD (UniProt Q05655) | inactive: -0.006 | inactive: -0.118 | inactive: 0.057 | inactive: 0.008 | inactive: -0.041 | inactive: -0.014 | inactive: 0.012 | inactive: 0.021 | inactive: -0.005 | inactive: 0.058
PPIP5K2 (UniProt O43314) | inactive: -0.012 | inactive: 0.035 | inactive: 0.019 | inactive: -0.036 | inactive: -0.023 | inactive: -0.023 | inactive: 0.094 | inactive: -0.02 | inactive: -0.007 | inactive: 0.014
PRPF40A (UniProt O75400) | inactive: 0.01 | inactive: -0.002 | inactive: 0.001 | inactive: 0.092 | inactive: 0.008 | inactive: 0.02 | inactive: 0.041 | inactive: -0.036 | inactive: -0.003 | inactive: -0.069
PRKCSH (UniProt K7ELL7) | inactive: 0.089 | inactive: 0.02 | inactive: -0.037 | inactive: 0.186 | inactive: -0.04 | inactive: 0.013 | inactive: 0.217 | inactive: -0.008 | inactive: -0.011 | inactive: -0.015

Some values from the entries so far.
Entry of PRKCSH isoform 2 (UniProt P14314) under log2 fold change [5]: inactive: 0.326
Entry of PPP4R1 (UniProt Q8TF05) under log2 fold change [2]: inactive: -0.017
